Results are given in words; binding and its absence hold for the method and conditions named.
Biological target: Desmoplakin C-terminal region fragment spanning plakin repeat domains A and B (PRD-AB) (human) (UniProt P15924)
Assay: SEC; size exclusion chromatography of purified PRD-AB; the conditions of this run are not told (the purification used Superdex S200 in 25 mM Tris-Cl pH 8.0, 100 mM NaCl, 2 mM DTT); both purified

B1: Desmoplakin C-terminal region fragment spanning plakin repeat domains A and B (PRD-AB) (domain or fragment, UniProt P15924 1960-2448)
chain: TVDTSKLVFDGLRKKVTAMQLYECQLIDKTTLDKLLKGKKSVEEVASEIQPFLRGAGSIAGASASPKEKYSLVEAKRKKLISPESTVMLLEAQAATGGIIDPHRNEKLTVDSAIARDLIDFDDRQQIYAAEKAITGFDDPFSGKTVSVSEAIKKNLIDRETGMRLLEAQIASGGVVDPVNSVFLPKDVALARGLIDRDLYRSLNDPRDSQKNFVDPVTKKKVSYVQLKERCRIEPHTGLLLLSVQKRSMSFQGIRQPVTVTELVDSGILRPSTVNELESGQISYDEVGERIKDFLQGSSCIAGIYNETTKQKLGIYEAMKIGLVRPGTALELLEAQAATGFIVDPVSNLRLPVEEAYKRGLVGIEFKEKLLSAERAVTGYNDPETGNIISLFQAMNKELIEKGHGIRLLEAQIATGGIIDPKESHRLPVDIAYKRGYFNEELSEILSDPSDDTKGFFDPNTEENLTYLQLKERCIKDEETGLCLLPLKE
- binding: no binding
